Source: publication PMC10612308

Chains of the proteins cited; added tags and fusions are not shown.
UniProt Q9BVK8: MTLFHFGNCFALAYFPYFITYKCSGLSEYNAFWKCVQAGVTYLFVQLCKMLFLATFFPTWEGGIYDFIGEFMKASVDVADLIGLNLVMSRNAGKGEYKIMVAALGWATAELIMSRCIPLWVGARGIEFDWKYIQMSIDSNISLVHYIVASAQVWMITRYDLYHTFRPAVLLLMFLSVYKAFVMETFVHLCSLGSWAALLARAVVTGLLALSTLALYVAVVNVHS
UniProt P52630: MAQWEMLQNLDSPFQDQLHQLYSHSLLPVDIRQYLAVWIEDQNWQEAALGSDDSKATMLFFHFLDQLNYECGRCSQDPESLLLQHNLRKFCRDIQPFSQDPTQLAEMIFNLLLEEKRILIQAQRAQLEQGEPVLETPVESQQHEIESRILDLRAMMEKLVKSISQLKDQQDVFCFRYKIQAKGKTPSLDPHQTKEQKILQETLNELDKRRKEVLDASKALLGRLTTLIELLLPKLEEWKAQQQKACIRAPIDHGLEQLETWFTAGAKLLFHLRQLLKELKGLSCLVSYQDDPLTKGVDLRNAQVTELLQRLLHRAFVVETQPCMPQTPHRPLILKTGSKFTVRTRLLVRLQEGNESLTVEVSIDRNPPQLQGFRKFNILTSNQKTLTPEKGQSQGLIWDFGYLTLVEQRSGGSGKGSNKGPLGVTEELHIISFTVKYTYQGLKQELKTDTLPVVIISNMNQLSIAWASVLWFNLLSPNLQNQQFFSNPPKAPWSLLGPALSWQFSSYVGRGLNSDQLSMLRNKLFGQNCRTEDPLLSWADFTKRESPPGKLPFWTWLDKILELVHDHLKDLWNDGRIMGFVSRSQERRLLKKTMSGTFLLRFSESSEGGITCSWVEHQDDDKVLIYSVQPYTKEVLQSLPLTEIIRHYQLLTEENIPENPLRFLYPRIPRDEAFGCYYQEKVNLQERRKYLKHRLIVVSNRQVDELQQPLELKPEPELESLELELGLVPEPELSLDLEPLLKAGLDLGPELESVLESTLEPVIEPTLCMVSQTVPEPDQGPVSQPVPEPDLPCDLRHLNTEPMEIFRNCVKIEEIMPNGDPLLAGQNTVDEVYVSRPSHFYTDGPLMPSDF

Molecular target: Flag-TMEM147 (transmembrane protein 147) (human) (UniProt Q9BVK8)
Test: affinity purification with mass spectrometry; extracts of Huh7 and HepG2 cells incubated with anti-Flag-TMEM147 or IgG, protein A/G agarose beads; bands specific for Flag-TMEM147 excised from the gel, MALDI-TOF-MS

binding: binds
Substance: signal transducer and activator of transcription 2 (STAT2) (from UniProt P52630 1-851)

Results are given in words; binding and its absence hold for the method and conditions named. Binding seen in cells or lysates may run through a third protein. Here binding means that the protein was enriched with, or labelled near, the bait; the list need not be complete.
